According to PubChem BioAssay AID1347426 (Functional Genomics Laboratory (NCATS/FGL), 2020):
Hit rate of the full screen: of about 31,000 sequences, about 1,400 (4.5%) were called active.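 Rule for the calls: active = median seed-adjusted z-score above 1 or below -1; inactive = the rest.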 The list shows a part of the results.

test: Novel Modifiers of Survival Motor Neuron (SMN) Protein: Gene Identification via Genome-wide siRNA Screen; conditions: HEK293T SMN2-luciferase reporter, siRNA knockdown, 72 h; actives lie on both sides;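 note: luminescence tracks full-length SMN protein made from the SMN2 reporter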
How it was run: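 Each of three siRNAs per gene is reverse-transfected (1 pmol) into reporter HEK293T cells whose luciferase output tracks SMN protein level. After 72 h culture, ONE-Glo luminescence is control-normalized, log10-transformed and MAD-standardized; Common Seed Analysis deprioritizes seed-driven hits.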

Row | Sequence | median seed-adjusted z-score
1 | CCCUCGAGCAUGUUCCAAATT against PRPF6 | active: -1.06
2 | GAAACCCUUUUGGACUUAATT against RAB27B | inactive: 0
3 | GCCGAGUCAGUAUCUAUGATT against STARD13 | inactive: -0.0337
4 | GGUGUUAUCUCUUAAGGCATT against HIVEP1 | inactive: 0.532
5 | AAAUGCAAUUCAAGCCUUUTT against GFRA1 | inactive: 0.125
6 | GCUUAUAUGAUAUCACCGATT against TPK1 | inactive: 0.521
7 | CACUUCAACUACUCCGUGATT against GPN3 | inactive: -0.796
8 | CCGUGGUGAUGGAACGCAUTT against PDXK | inactive: -0.247
9 | GUCACGCUAUGAGACCUCATT against E2F1 | inactive: -0.211
10 | ACAUCACAGUAGAUACGGATT against XYLT2 | inactive: 0.148
11 | GAGGUGUGCUUUCUCACAATT against NLGN2 | inactive: 0.204
12 | GGCAAAUAGAUAUCGCAAATT against ZDHHC14 | inactive: 0.312
13 | GGAGUCUCAUAGAUGACAATT against MMP27 | inactive: -0.084
14 | UCACUGUGCUACAUCAUCATT against MYL7 | active: -1.21
15 | GGGAAAAGCUUGACGAUUATT against RNF139 | inactive: 0.175
16 | CGGCAGACACUGAACAUCATT against SLC6A18 | inactive: 0.148
17 | CCGCCGAUGAGAUUGUGAATT against DAK | inactive: -0.372
18 | GCAUCUACUUCCUAGCCGUTT against NPBWR2 | inactive: 0.438
19 | CCAGCGGUGUGGAAUGAGATT against LHPP | inactive: 0.02
20 | GUAUGGAACCAAUUAUAGATT against CPO | inactive: 0.0875
21 | GCAAAGCCCUGUCAAACAATT against NPM2 | inactive: 0.215
22 | GCAGCAGUAUGUGCGCUCATT against DDX54 | inactive: 0

Row | Sequence | median seed-adjusted z-score
23 | CAACGGUUCUUACACCAAATT against EMR4 | inactive: -0.475
24 | GGAUGUAAUUGAACGAUUUTT against ADAM17 | inactive: 0
25 | GCGACUUACUGAAGUGCAATT against FTSJ3 | inactive: 0.437
26 | CGUUCUCUUAAUAGACAUATT against ZNF124 | inactive: -0.487
27 | GUUGCACUGCGUUUCAAAATT against 2-Mar | inactive: 0.335
28 | CCAUCUAUCUGUGGGAGUUTT against ELF4 | inactive: -0.0311
29 | GCACGUAGAAAUGAUGAUATT against SMARCAD1 | inactive: -0.198
30 | GAGAAAGAGUUCAAAUACATT against CLIC3 | inactive: 0
31 | GCAACUACAGCACGAAUUATT against ZFHX4 | inactive: 0.0868
32 | CAAGGGCACCUCUAAGGAUTT against GRB7 | inactive: 0.439
33 | GGACUACGAUGCUGGGAGATT against NCBP2 | inactive: -0.247
34 | AGCCUAUGCCUAUAAAGAATT against RPH3A | inactive: 0.232
35 | GCGGUACAUUUGUAACUCUTT against IL15RA | inactive: -0.0113
36 | AGUUCCGGGUGUUUAAUAATT against ITLN2 | inactive: 0.00733
37 | GAGCAGACUUGAUCAAGCATT against HSDL1 | inactive: 0.0547
38 | CUCUACCAACAAUCACAAATT against NPTN | inactive: 0.133
39 | AGAACUCACUGACCUUCAATT against FOXI1 | inactive: -0.217
40 | GCAGGGCAUUAUUCUAGAATT against MIZF | inactive: 0.365
41 | GGAUCAACCGCUGCUUGAATT against HELT | inactive: -0.192
42 | GAAUCUACCUUAAUAUCGUTT against ARHGEF12 | inactive: 0.136
43 | GCCCUGAACAAGUUGCUCATT against TRPV6 | inactive: -0.511
44 | GGAAAACCUCAAUUGCUAUTT against ATP5A1 | inactive: -0.974

Row | Sequence | median seed-adjusted z-score
45 | CCACGAAAACGAAUGACUATT against TNFRSF17 | inactive: -0.0138
46 | GGAGAUAAGAGAUCAUAUUTT against OXNAD1 | inactive: 0.36
47 | GGAGAAUAUUAACUAUUGATT against COL21A1 | inactive: 0.296
48 | AGCAAAUGCUGUCAGAGAATT against TGIF2LX | inactive: -0.568
49 | GUACUUCGAUGGACUCAAATT against RDH13 | inactive: 0.208
50 | GAUUCAGAAUGGGAGGCUUTT against TXNDC13 | inactive: 0.365
51 | GAUCAAUGAUAGUAUCCGATT against ERMP1 | inactive: 0.231
52 | GCGCAUCUAUCAACCCAAUTT against MLNR | inactive: -0.038
53 | CCAACCACCAGAUCUAUGATT against LBX1 | inactive: -0.36
54 | CUAUGCCCGUGGUCACUAUTT against TUBA4A | inactive: -0.594
55 | GAACGUAGAUUAGCUUAUATT against TBK1 | inactive: 0.0578
56 | GCAAUGAGGUGGAGCCUGATT against TARBP2 | inactive: 0.068
57 | CAGCAUAUUUAAGUUCUUUTT against AMACR | inactive: -0.591
58 | UGAUCGCUCUCAAGCCGGUTT against POU4F3 | inactive: 0
59 | CAAUGAGCCUGGUGUUAGATT against GPN1 | inactive: -0.14
60 | GGCAGAUGGUGGGACCUAUTT against EXOSC4 | inactive: 0.443
61 | GCAACUGUGAAAGCACUAATT against MAP2K4 | inactive: -0.366
62 | GUCUGUAGUUCACCCGUUATT against USP9Y | inactive: 0.012
63 | CAGCAGGUGUACAAAACCATT against TNP2 | inactive: -0.346
64 | CGCCGAGAGUGUUUUGGCATT against NEU4 | inactive: -0.152
65 | GCUGAUCCAGUGUCUCUUUTT against HSF4 | inactive: 0.926
66 | AGUAUCAUCUGUUACUAUATT against MAP2K1IP1 | inactive: 0.333

Row | Sequence | median seed-adjusted z-score
67 | AGCUGUCUCUGAUCCGCAATT against CCND2 | inactive: -0.819
68 | CAGUUGCUAUGAGACUUGATT against CYP3A7 | inactive: -0.107
69 | CCCAUUUAAGGAGAACUAUTT against MPPE1 | inactive: -0.409
70 | CUCACUAAGAAGACCCAAATT against VEGFB | inactive: 0
71 | CCUCAGAUCUGAUGUCCAATT against VPS4A | inactive: 0
72 | GGACAAAGACUGGUACGUUTT against HTT | inactive: -0.234
73 | ACUUCAUGAUGGAUAUCCATT against KCNN4 | inactive: 0.00864
74 | CGGUCCAUCUGAUCCAUGATT against GANAB | inactive: 0.269
75 | CAUCAAGAAUUGCGAAUUATT against TRIP4 | inactive: -0.0385
76 | CUGUUCCAAUUAAAGAUAATT against ATRIP | inactive: 0.353
77 | UCUCCUUCCUUUUAACGGATT against CACNG5 | inactive: -0.41
78 | UGGUCUAUCGGGAUCAGAATT against KLC2 | inactive: 0.0706
79 | GCAUGUAGGUCACCUCAUUTT against WARS | inactive: -0.724
80 | GGACAGACAAGGAACCCAUTT against CASP10 | inactive: -0.0372
81 | GGAAGGCAAGUACAGCGUATT against PCDH21 | inactive: -0.528
82 | CCUCAACUGCAUACGGAAATT against GRID1 | inactive: 0.66
83 | CCAGAUGCCUGGUGAAACATT against RAB38 | inactive: -0.165
84 | CAUCCACAUUGCACAUAAATT against TYK2 | inactive: -0.549
85 | GCAUGACCUCUGUAAGGGATT against ANK1 | inactive: -0.282
86 | CAACAAAACUCCACUCGAATT against OPRM1 | inactive: -0.00476
87 | UGACAUCAAGAGCUACUUUTT against FEN1 | inactive: -0.316
88 | GGAGAGCUGUGAAAAGUCATT against CCR8 | inactive: -0.206

Given comma-delimited: entries from further up
Row,Sequence,median seed-adjusted z-score
68,CAGUUGCUAUGAGACUUGATT against CYP3A7,inactive: -0.107
72,GGACAAAGACUGGUACGUUTT against HTT,inactive: -0.234
78,UGGUCUAUCGGGAUCAGAATT against KLC2,inactive: 0.0706
83,CCAGAUGCCUGGUGAAACATT against RAB38,inactive: -0.165

Next records follow:

Row | Sequence | median seed-adjusted z-score
89 | GCAUCCAGAUUCCGAACAATT against ZACN | inactive: 0.065
90 | CUUCUUCGAUGAUUCCUAUTT against UBE2O | inactive: 0.125
91 | CGAUUUCGGCAACAAUUUATT against CAPNS2 | inactive: 0.529
92 | GGGCUACAAACUGAACAAATT against LOC81691 | inactive: -0.285
93 | CCUACGUUUUUAUUAUCUUTT against SLC2A14 | active: -1.09
94 | CCACAGAGAUUAACUUCAATT against CRABP2 | inactive: 0.0092
95 | GAGUUCAACUUAGAGACGATT against TIE1 | inactive: 0.0629
96 | AGAGGGUGUUCUCUAUGUATT against SNCA | inactive: 0.36
97 | GUACAUAACAUCAAUUUCATT against ZBTB24 | inactive: -0.156
98 | GGAACAUAGAGAUUUUAUATT against BHLHB3 | inactive: -0.00972
99 | GGACGAUUACAUCUUCUUUTT against SORCS2 | inactive: 0.648
100 | CGAGUGCACUGCUGCCUAUTT against 5-Sep | inactive: -0.0749
101 | CGCUGUAAAUAUACACUAUTT against ADRA2A | inactive: -0.65
102 | CAUCCAUCCUGUUUCCACUTT against GAL3ST4 | inactive: 0.248
103 | AGAGGAGCAUACUACAUGATT against SPAG7 | inactive: 0.263
104 | CAGUUGACAGUGUGAUUAUTT against ACAA2 | inactive: 0.435
105 | GGUCAGCCCUUCUUUCACATT against ZNF192 | inactive: 0
106 | GCAUGUCUAUCCUACGUGATT against TUSC4 | inactive: 0.312
107 | GCUAUAAGGUGGAACGGCATT against POLR2A | active: -3.81
